The text below walks through data of patent CN112321709A.

These are yes or no findings as the source states them, for the method shown. In cells and extracts the contact can be indirect. Some binding calls cover weakened binding; strength is not graded here.

The test has as its target T1, 7S Vicilin种子储藏蛋白(MiAMP2) (澳洲坚果 (macadamia)) (UniProt Q9SPL5).
T1 sequence (looked up): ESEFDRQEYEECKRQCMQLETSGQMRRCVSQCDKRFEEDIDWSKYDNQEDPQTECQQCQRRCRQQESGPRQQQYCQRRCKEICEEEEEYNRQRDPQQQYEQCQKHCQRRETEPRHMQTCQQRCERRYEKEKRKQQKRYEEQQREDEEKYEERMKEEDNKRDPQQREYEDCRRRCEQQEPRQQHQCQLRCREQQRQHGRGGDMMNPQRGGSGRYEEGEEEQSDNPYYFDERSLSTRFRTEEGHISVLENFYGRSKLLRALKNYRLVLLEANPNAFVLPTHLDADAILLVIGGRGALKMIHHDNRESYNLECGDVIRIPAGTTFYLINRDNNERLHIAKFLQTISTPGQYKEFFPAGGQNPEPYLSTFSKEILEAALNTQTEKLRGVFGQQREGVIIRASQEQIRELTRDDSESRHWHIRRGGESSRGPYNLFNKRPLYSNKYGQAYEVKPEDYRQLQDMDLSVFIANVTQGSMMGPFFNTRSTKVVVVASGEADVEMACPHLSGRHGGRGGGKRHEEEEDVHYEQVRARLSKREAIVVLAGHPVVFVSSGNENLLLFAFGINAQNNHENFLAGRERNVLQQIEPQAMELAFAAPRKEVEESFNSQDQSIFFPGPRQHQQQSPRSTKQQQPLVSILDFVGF
Put plainly: Co-IP from macadamia protein with Ni-NTA magnetic beads on the nanobody His tag, Western blot, LC-MS/MS of the excised band. For orientation: In western blotting, separated proteins are transferred to a membrane and probed.

B1: 纳米抗体Nb135 (VHH, not shown: small tags and cut ends)
VHH: QVQLQESGGGLVQTGGSLKLSCTASGRTFSRYNMGWFRQAPGKEREFVAAISWSGVTYYEDSVKGRFTISRDNAQNTVYLQMNSLKTEDTAVYSCAADWNGILRTTASTYDYWGQGTQVTVSS
Turning to B1, the binding entry was “binds”.

B2: 纳米抗体Nb139 (VHH, not shown: small tags and cut ends)
VHH: QVQLQESGGGLVQAGGSLRLSCAASGLTFSTYALGWFRQAPGKEREFVVAISRSGGRTNYADSVKGRFTISRDNAKNTVFLQMNSLKPEDTAIYYCAARYSSTYYSTFADPGYDYWGQGTQVTVSS
As for B2, the binding entry is “binds”.

B3: 纳米抗体Nb81 (VHH, not shown: small tags and cut ends)
VHH: QVQLQESGGGLVQAGGSLRLSCAASGRAFSNYAMGWFRQAPGKEREFVAGIRRLGGSTYYADSVKGRFTISRDNAKNTVYLQMNSLKPEDTAVYYCAVSERYREFSRAGMDYWGKGTQVTVSS
As for B3, the binding entry is recorded as “binds”.

B4: 纳米抗体Nb68 (VHH, not shown: small tags and cut ends)
VHH: QVQLQESGGGLVQPGGSLRLSCWASGFTFSSSAMYWIRQAPGKGLEWVSAIYNNGITSYTDSVKGRFTISRDNAKNTVYLQMNNLKPEDTAVYYCARSPGSVRGQGTQVTVSS
Take B4: the binding entry was “binds”.

B5: 纳米抗体Nb58 (VHH, not shown: small tags and cut ends)
VHH: QVQLQESGGGLVQAGDSLRLSCAASGLTFSTYAMGWFRQAPGTEREFVATISRSGKSTNYADSMKGRFTISRDNAKNTVYLQMNSLKPEDTAVYYCAAAPLPSYYGGISYRGNEAQYWGQGTQVTVSS
With B5, the binding result is on record as “binds”.
